# Measured values from patent US20240279201A1, “DUAL WNT SIGNALING PATHWAY INHIBITORS AND AMPK ACTIVATORS FOR TREATMENTS OF DISEASE” (priority 2021, published 2024).
# Experiment: physchem
# Settings: water
# Experimental: The ADMET and PK properties of YA6060 was determined.
# Determination of physiochemical properties. The profiles of six selected analogs is estimated in silico, and selected Axin stabilizers are evaluated in in vitro assays: the aqueous solubility is determined using a multiscreen solubility filter plate (Millipore, Billerica, MA) coupled with LC-MS/MS, as performed for the already synthesized YA6060 analogs; the cell viability assays on selected analogs is measured using HEK293 cells; the intestinal permeability by determining the transport from the apical to the basolateral (A to B) in Caco-2 monolayers; the metabolic stability by incubating the compounds with mouse microsomes and liver tissue S9 fraction and analyzing by LC-MS/MS.
smiles,measurement,value
"Cc1cc(/C=C/c2ccc3cc(N(C)C)ccc3[n+]2C)c(C)n1-c1ccccc1 [Pyr, reference compound]",solubility,< 10 µg/mL
